Paper doi:10.1101/2023.01.10.523476 (bioRxiv, 2023)
No constants are given. Whether binding was seen depends on the method and setting. A result given as binding can be weak or reduced; the word gives no strength. Tags and fused reporters may be left off the sequences shown.

Biological target: T1, GspDβ secretin (ETEC H10407 strain) with hexahistidine tag (Enterotoxigenic E. coli (ETEC) H10407 strain) (UniProt E3PJ86)
T1 sequence: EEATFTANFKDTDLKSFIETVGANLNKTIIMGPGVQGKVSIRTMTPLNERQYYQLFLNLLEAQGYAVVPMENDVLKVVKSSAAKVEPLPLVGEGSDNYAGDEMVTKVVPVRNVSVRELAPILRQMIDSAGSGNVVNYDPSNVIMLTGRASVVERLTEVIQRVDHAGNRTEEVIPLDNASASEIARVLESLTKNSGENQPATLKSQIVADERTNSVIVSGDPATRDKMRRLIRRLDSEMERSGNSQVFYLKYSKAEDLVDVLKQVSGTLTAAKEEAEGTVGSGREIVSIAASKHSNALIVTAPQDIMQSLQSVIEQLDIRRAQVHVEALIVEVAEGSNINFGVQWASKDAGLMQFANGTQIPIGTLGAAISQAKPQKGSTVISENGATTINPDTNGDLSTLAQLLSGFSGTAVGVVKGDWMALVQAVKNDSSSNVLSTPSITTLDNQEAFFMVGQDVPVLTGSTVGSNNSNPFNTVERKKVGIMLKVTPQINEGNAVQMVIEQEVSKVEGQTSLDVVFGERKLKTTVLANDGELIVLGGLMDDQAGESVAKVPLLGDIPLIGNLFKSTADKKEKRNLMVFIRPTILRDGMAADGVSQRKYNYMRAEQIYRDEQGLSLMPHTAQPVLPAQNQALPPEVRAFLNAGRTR
Test: cryo-EM structure

Row | Substance | binding
1 | GspS pilotin (ETEC H10407 strain), no tag | binds
2 | E. coli endogenous GspS | binds
